Assay results published in patent US20100130457A1, “Phenothiazine Derivatives for Treatment of Asthma” (Immune Control, Inc., priority 2008, published 2010).

Test system: human small airway
Experiment: Human precision-cut lung slices (PCLS), small airway contraction
Details: C-027 10^−5 M; formoterol 0.3 nM
Experimental: Human precision-cut lung slices (PCLS) permit evaluation of pharmacological responses of novel drug candidates applied directly to their target tissue.
Human precision-cut lung slices (PCLS, 250 μm thick) containing a small airway were contracted to carbachol, histamine and passively sensitization to induce airway closure±pre-incubation with ICI-735 (10 μM; 2 hours); FIG. 13. For example, human lung slices containing a small airway were incubated overnight with either negative control IgG (4 μg/mL) or positive control IgE (4 μg/mL). The slices were tested as follows: 1) IgG+anti-IgE; 2) IgE+anti-IgE; 3) IgE+Dexamethasone (1 μM)+anti-IgE; and 4) IgE+ICI-735 (10 μM) +anti-IgE. Dexamethasone and ICI-735 were pre-incubated 2 hours prior to anti-IgE; anti-IgE is used to crosslink antibodies and induce mast cell degranulation, which is believed to release histamine and cause airway contract. […]
Human lung tissue contains multiple cell types, including mast cells, that localize in the region of airway smooth muscle, and that increase in number in individuals with asthma. […]
To test C-027 as a blocker of histamine-induced bronchoconstriction, lung slices were incubated for 2 hours with C-027, and small airway contraction was evaluated after addition of increasing concentrations of histamine.

SMILES: COc1ccc(CC(C)NCC(O)c2ccc(O)c(NC=O)c2)cc1 (stereo not shown) [formoterol, reference compound]
- CCh-induced bronchoconstriction after pretreatment of lung slices: Reduced responsiveness
